PubChem BioAssay AID504784 | Drosophila RNAi Screening Center – 2011

Screen: 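Fly genes whose silencing alters how much lipid cells keep in droplets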 (primary screen)
Cell system: Drosophila Kc167 embryonic cells
Reagent: long dsRNA against Drosophila genes, about 250 ng dsRNA per well
Duration: 4 days
Challenge: cells fed 400 µM oleic acid bound to BSA
Measurement: 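Microscope images give a droplet-to-nucleus area ratio, taken as log and converted to a screen-wide B-score; higher values mean greater lipid storage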
Direction: droplet/nuclear area B-score: higher = more stored lipid (overstorage)
In all, the deposit lists about 17,000 reagents; below is an unselected part of those with a known target gene and a result. 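Each column is one replicate's B-score; the combined score over replicates was not deposited, so single values may mislead.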 Reagents against one gene are numbered here. Reagent sequences are not shown.

predicted target | reagent no. | droplet/nuclear area B-score, replicate 1 | droplet/nuclear area B-score, replicate 2 | droplet/nuclear area B-score, replicate 3
Prosbeta5 (Proteasome beta5 subunit) | 1 | -0.457 | 0.548 | –
zda (zonda) | 1 | 0.904 | – | –
CG32834 | 1 | -0.0753 | -0.19 | –
Dnaaf3 (Dynein axonemal assembly factor 3) | 1 | 0.818 | 0.377 | –
Polr3I (RNA polymerase III subunit I) | 1 | 0.535 | -0.088 | –
2mit | 1 | -0.0991 | -1.36 | –
2mit | 2 | -0.689 | -1.04 | –
CG14671 | 1 | -0.3 | -0.89 | –
Dgp-1 | 1 | 0.0176 | -0.776 | –
ND-13B (NADH dehydrogenase (ubiquinone) 13 kDa B subunit) | 1 | 1.85 | 0.864 | –
nemy (no extended memory) | 1 | -0.0747 | -1.17 | –
nemy (no extended memory) | 2 | -0.00861 | -1.54 | -2.12
Amy-p (Amylase proximal) | 1 | 1.85 | -3.14 | –
CG6310 | 1 | -0.202 | 1.07 | –
Drsl1 (Drosomycin-like 1) | 1 | -1.44 | -0.409 | –
Inx3 (Innexin 3) | 1 | -1.66 | – | –
xit (xiantuan) | 1 | -1.63 | 1.14 | -0.0955
CG32376 | 1 | 1.33 | -0.501 | –
Art1 (Arginine methyltransferase 1) | 1 | -0.354 | 0.0147 | –
CG31663 | 1 | -0.125 | 0.896 | –
CG31663 | 2 | 2.17 | 0 | –
CG31663 | 3 | 0.218 | 0.646 | –
CG31663 | 4 | 1.75 | 1.03 | –
HDAC1 (Histone deacetylase 1) | 1 | -2.04 | -1.09 | –
bnk (bottleneck) | 1 | 0.173 | -0.0344 | –
CG4281 | 1 | -0.258 | 1.34 | –
CG4983 | 1 | 0.0212 | 1.12 | –
mus304 (mutagen-sensitive 304) | 1 | -0.818 | 0.897 | –
betaNACtes6 (Nascent-associated complex beta-subunit-like, testis 6) | 1 | -1.96 | 0.0204 | –
Vha16-5 (Vacuolar H[+] ATPase 16kD subunit 5) | 1 | -0.266 | -1.33 | –
Polr2C (RNA polymerase II subunit C) | 1 | -1.27 | -0.162 | –
Polr2G (RNA polymerase II subunit G) | 1 | -0.0173 | -0.402 | –
CG32511 (retired record) | 1 | 0.819 | -0.000428 | –
CG18745 | 1 | -0.267 | 0.771 | –

Copied from the listing, 6 entries:
predicted target | reagent no. | droplet/nuclear area B-score, replicate 1 | droplet/nuclear area B-score, replicate 2 | droplet/nuclear area B-score, replicate 3
Inx3 (Innexin 3) | 1 | -1.66 | – | –
xit (xiantuan) | 1 | -1.63 | 1.14 | -0.0955
CG32376 | 1 | 1.33 | -0.501 | –
Art1 (Arginine methyltransferase 1) | 1 | -0.354 | 0.0147 | –
CG31663 | 1 | -0.125 | 0.896 | –
CG31663 | 2 | 2.17 | 0 | –
